Reference: ChEMBL document CHEMBL4007420, “Structural Optimization and Pharmacological Evaluation of Inhibitors Targeting Dual-Specificity Tyrosine Phosphorylation-Regulated Kinases (DYRK) and CDC-like kinases (CLK) in Glioblastoma” (J Med Chem, 2017)

The chains behind the UniProt entries cited, without tags or fusion partners.
UniProt Q9Y463, whole entry: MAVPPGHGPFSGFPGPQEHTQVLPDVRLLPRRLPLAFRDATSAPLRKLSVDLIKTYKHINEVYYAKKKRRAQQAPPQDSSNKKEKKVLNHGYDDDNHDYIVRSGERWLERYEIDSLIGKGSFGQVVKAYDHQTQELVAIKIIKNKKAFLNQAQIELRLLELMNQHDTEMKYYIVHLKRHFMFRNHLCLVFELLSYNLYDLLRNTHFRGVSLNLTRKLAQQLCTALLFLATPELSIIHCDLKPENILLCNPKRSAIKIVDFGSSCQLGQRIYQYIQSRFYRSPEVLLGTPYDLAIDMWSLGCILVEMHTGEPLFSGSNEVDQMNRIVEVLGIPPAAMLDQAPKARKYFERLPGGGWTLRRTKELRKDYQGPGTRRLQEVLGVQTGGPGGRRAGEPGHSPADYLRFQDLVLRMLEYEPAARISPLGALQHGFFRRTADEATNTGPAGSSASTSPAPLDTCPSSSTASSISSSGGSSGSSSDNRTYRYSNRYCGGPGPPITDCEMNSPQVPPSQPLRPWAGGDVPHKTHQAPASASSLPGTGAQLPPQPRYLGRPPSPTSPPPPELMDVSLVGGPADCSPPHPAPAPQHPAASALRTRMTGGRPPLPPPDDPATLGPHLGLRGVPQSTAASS

Target: Dual specificity tyrosine-phosphorylation-regulated kinase 1B (Homo sapiens, UniProt Q9Y463)
Test: Inhibition of recombinant GST-tagged DYRK1B (unknown origin) expressed in Escherichia coli using DYRKtide as substrate after 5 mins in presence of [gamma-33P]ATP by liquid scintillation counting

COc1ccc2c(c1)[nH]c1c(C)nccc12 [HARMINE]
IC50: 160 nM
